Data taken from the supplement of paper PMC12067093, “Discovery and optimisation of a covalent ligand for TRIM25 and its application to targeted protein ubiquitination” (Chemical Science, 2025).
Some of the results follow.

Sequences of proteins named here, by UniProt entry; tags and fusion partners are left off. A change or cut given only in a name is not applied to a line headed by its entry.
UniProt O43684, whole entry, looked up: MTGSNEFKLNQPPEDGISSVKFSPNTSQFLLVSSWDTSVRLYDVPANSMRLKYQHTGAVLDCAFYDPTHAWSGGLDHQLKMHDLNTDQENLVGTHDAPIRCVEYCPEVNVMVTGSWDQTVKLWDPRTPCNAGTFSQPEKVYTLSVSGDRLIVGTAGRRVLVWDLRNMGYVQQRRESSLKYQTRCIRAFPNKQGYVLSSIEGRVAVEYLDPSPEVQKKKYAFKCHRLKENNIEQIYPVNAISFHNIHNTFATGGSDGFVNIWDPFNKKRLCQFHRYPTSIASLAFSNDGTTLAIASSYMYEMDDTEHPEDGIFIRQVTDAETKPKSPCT
UniProt O00478: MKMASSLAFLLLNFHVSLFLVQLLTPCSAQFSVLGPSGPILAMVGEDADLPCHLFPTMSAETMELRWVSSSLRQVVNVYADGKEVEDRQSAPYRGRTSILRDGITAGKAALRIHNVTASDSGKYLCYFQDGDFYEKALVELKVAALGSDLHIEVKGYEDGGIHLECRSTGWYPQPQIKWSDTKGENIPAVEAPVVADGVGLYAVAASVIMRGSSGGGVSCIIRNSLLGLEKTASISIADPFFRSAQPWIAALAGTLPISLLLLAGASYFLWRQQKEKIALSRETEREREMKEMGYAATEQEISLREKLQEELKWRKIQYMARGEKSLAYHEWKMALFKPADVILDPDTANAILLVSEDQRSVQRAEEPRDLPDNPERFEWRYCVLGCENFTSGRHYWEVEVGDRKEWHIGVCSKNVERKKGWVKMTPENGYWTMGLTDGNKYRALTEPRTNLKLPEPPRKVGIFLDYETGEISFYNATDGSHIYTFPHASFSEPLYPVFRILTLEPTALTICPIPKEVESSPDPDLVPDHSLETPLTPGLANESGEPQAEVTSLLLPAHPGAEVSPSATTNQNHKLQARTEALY
UniProt Q86VP6: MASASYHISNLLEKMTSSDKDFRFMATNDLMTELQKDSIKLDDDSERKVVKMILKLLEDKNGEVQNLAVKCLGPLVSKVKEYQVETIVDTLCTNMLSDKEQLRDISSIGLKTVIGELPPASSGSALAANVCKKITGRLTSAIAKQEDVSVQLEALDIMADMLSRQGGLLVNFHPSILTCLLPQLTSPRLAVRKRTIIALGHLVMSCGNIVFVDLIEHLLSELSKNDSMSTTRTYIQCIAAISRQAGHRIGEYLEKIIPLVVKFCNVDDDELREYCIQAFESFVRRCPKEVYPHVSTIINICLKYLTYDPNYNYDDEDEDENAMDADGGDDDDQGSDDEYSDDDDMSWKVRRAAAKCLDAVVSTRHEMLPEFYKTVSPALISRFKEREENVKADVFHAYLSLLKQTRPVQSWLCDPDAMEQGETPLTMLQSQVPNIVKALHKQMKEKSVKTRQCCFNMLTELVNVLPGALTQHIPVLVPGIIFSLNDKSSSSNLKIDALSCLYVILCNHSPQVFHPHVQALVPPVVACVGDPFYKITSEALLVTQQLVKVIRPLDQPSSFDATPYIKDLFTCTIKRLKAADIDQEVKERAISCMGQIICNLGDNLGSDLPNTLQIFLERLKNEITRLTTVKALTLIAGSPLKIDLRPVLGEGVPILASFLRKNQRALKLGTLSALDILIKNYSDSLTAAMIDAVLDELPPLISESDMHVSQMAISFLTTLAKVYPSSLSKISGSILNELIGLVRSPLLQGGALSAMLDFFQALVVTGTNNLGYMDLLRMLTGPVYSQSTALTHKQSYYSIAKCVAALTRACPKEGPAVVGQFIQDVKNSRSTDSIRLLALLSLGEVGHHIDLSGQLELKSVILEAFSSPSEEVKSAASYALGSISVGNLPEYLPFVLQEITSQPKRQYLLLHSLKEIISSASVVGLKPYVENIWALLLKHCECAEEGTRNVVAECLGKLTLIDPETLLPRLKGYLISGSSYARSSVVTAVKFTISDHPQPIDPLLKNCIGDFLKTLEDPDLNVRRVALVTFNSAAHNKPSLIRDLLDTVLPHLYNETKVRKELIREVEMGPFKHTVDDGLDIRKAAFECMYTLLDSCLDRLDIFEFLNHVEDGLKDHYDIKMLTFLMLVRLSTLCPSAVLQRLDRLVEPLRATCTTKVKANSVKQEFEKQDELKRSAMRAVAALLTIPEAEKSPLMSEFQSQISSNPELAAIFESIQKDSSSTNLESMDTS
UniProt Q96NL8: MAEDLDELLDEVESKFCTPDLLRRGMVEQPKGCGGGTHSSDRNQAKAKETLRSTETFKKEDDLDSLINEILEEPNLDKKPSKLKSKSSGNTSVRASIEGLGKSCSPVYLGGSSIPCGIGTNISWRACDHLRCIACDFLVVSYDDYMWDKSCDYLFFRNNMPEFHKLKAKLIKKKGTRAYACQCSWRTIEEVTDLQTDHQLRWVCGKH
UniProt Q10588: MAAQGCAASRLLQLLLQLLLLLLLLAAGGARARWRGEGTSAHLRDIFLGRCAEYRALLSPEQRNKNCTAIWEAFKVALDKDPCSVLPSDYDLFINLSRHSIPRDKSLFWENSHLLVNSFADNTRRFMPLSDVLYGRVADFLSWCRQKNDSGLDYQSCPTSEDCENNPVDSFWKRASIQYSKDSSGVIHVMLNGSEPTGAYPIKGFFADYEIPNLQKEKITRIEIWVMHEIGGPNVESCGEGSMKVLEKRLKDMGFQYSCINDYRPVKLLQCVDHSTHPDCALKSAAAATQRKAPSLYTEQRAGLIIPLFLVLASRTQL
UniProt Q5T5Y3: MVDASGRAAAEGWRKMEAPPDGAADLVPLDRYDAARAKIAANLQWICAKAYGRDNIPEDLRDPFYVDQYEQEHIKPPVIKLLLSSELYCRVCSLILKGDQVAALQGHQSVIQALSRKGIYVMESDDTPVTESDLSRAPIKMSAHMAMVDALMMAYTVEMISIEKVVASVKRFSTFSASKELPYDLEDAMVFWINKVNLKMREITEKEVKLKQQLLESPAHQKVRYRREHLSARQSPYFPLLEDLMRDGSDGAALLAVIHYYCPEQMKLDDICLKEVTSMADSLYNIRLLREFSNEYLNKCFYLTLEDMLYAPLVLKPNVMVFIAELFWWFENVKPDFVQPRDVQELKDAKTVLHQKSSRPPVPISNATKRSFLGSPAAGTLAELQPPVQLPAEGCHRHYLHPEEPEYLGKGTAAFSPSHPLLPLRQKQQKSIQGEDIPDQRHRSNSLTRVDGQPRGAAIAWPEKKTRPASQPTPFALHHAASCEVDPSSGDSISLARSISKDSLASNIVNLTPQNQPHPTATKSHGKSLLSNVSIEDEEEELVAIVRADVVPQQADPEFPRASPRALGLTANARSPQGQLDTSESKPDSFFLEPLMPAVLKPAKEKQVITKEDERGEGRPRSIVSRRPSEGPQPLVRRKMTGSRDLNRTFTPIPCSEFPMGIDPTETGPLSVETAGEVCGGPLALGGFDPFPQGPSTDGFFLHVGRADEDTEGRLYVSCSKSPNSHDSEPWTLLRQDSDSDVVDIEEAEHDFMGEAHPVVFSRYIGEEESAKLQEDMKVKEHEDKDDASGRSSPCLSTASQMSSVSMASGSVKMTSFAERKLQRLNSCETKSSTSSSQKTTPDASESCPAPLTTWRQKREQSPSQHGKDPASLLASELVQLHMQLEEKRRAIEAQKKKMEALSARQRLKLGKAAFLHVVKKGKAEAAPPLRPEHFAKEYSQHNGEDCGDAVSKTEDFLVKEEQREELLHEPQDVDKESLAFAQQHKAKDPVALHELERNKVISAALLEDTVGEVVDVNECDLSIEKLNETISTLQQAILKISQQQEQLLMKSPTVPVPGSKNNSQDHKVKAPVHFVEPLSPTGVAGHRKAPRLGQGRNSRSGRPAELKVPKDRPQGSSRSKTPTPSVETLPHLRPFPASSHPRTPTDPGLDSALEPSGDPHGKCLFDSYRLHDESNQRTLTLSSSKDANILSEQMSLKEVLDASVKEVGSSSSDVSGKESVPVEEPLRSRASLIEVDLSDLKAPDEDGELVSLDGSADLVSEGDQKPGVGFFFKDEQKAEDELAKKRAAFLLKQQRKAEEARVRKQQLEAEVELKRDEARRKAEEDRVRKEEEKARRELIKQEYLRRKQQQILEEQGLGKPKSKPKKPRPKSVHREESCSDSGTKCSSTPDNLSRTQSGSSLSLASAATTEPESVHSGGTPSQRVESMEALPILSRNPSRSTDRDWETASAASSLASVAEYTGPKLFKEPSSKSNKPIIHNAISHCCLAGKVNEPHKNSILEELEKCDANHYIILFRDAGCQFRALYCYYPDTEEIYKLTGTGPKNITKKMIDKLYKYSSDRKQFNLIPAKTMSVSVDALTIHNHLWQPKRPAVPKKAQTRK
UniProt Q6P1X6: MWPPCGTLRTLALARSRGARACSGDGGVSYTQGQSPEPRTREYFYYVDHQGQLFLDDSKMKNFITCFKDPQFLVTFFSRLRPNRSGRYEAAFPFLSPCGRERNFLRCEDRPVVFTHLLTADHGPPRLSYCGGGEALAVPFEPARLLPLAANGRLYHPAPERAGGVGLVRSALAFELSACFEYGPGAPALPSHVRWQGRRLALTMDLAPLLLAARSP
UniProt P27824: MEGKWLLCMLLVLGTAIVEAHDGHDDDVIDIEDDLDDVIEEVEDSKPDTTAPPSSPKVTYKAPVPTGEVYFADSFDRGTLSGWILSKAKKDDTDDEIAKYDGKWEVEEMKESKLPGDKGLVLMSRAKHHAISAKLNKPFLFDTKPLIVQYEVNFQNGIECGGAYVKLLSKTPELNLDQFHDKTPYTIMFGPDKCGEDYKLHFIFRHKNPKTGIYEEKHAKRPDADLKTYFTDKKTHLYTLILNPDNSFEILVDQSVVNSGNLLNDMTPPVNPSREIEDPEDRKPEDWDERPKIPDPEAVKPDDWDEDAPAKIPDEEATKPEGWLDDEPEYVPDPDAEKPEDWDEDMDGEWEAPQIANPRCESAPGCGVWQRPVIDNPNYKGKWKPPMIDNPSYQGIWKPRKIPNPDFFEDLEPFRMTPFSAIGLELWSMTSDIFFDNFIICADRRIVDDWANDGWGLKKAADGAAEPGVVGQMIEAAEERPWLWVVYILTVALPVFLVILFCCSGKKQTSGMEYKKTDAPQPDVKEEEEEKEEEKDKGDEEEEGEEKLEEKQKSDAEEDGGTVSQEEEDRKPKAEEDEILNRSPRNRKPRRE
UniProt Q8TDN6: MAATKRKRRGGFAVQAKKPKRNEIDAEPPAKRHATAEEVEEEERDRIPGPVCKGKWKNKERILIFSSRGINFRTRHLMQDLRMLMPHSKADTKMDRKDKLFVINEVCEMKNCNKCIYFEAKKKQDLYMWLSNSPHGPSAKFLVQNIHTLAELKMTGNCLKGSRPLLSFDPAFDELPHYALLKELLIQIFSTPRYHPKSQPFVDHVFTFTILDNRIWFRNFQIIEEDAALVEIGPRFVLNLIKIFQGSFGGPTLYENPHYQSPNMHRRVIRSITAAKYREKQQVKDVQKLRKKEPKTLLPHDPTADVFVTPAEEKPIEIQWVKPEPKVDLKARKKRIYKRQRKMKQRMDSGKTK
UniProt Q9BSF8: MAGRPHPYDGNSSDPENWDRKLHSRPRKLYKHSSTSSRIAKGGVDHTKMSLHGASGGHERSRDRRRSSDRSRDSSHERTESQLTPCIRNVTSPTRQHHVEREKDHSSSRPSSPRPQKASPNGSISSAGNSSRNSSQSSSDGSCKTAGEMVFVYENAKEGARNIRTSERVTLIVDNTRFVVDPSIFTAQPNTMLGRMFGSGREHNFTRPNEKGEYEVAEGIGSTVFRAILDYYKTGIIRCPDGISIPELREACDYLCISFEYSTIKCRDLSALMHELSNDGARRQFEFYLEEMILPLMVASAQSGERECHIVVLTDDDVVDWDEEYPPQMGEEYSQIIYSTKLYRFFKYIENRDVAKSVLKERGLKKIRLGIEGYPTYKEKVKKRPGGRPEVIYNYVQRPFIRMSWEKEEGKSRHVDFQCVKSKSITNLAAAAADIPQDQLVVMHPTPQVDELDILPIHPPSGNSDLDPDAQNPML
UniProt F5H4A9: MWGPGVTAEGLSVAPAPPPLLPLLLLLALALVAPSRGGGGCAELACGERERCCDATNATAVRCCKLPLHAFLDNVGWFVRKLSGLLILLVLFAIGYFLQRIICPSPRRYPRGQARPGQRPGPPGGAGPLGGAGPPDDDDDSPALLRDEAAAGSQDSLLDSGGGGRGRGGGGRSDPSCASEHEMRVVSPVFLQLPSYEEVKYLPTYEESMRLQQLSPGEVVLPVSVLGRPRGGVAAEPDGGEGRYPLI
UniProt Q14012: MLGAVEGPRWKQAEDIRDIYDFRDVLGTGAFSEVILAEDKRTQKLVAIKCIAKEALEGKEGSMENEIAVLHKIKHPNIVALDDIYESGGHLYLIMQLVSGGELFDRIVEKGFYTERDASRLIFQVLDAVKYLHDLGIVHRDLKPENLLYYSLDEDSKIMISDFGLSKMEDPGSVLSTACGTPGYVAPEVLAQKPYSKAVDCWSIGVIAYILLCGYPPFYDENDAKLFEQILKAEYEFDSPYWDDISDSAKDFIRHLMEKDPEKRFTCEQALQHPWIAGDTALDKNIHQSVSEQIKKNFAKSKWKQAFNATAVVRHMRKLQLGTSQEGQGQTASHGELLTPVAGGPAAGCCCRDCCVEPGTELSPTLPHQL

compound: Cc1cc(ccc1-c1ccccc1)C(=O)N1CCCN(CC1)C(=O)CCl [compound 10]; test: probe-labelled cysteine peptide fold change vs DMSO (competition) (log2 fold change); higher = less target engagement (more negative = stronger competition); conditions: 10 µM; THP-1; incubation time: 4 h
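Further: competitive profiling in live THP-1 cells: cysteine peptides tagged with an iodoacetamide desthiobiotin (IA-DTB) probe, intensity after compound treatment relative to DMSO-treated cells.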

Row | Target | probe-labelled cysteine peptide fold change
1 | C17orf75_Q9HAS0_296_FCEDWMQAFLNGAK (UniProt Q9HAS0) | 0.213
2 | BUB3_O43684_270_RLCQFHR (UniProt O43684) | 0.0658
3 | CALR_P27797_163_CKDDEFTHLYTLIVR (UniProt P27797) | -0.0557
4 | BTN3A3_O00478_512_ILTLEPTALTICPIPK (UniProt O00478) | -0.105
5 | CAD_P27708_2161_FGSTQEYEACFGQFILTPHIMTR (UniProt P27708) | 0.0378
6 | CAND1_Q86VP6_237_TYIQCIAAISR (UniProt Q86VP6) | 0.27
7 | CAMK2G_Q13555_7_ATTATCTR (UniProt Q13555) | -0.074
8 | BTG3_Q14201_238_NKPYRPIPVTWVPPPGMHCDR (UniProt Q14201) | -0.582
9 | C12orf4_Q9NQ89_350_DFATVCQECTDFHFPR (UniProt Q9NQ89) | -0.276
10 | C8orf37_Q96NL8_33_GCGGGTHSSDR (UniProt Q96NL8) | -0.106
11 | CAD_P27708_1501_EDFASGTAAALAGGITMVCAMPNTRPPIIDAPALALAQK (UniProt P27708) | 0.436
12 | C12orf10_Q9HB07_62_IGTHNGTFHCDEALACALLR (UniProt Q9HB07) | -0.128
13 | BUB3_O43684_62_YQHTGAVLDCAFYDPTHAWSGGLDHQLK (UniProt O43684) | 0.12
14 | CACYBP_Q9HB71_154_TDTVLILCR (UniProt Q9HB71) | -0.0272
15 | C1QBP_Q07021_186_ALVLDCHYPEDEVGQEDEAESDIFSIR (UniProt Q07021) | -0.22
16 | BST1_Q10588_83_VALDKDPCSVLPSDYDLFINLSR (UniProt Q10588) | -0.187
17 | CAMSAP1_Q5T5Y3_1379_EESCSDSGTK (UniProt Q5T5Y3) | -0.0703
18 | BTN3A3_O00478_166_GYEDGGIHLECR (UniProt O00478) | -0.0485
19 | C8orf82_Q6P1X6_107_CEDRPVVFTHLLTADHGPPR (UniProt Q6P1X6) | -0.0867
20 | BRWD3_Q6RI45_202_IFTGSDDCLVK (UniProt Q6RI45) | 0.159

Reformatted: entries from further up
Row,Target,probe-labelled cysteine peptide fold change
17,CAMSAP1_Q5T5Y3_1379_EESCSDSGTK (UniProt Q5T5Y3),-0.0703
18,BTN3A3_O00478_166_GYEDGGIHLECR (UniProt O00478),-0.0485

(continued)

Row | Target | probe-labelled cysteine peptide fold change
21 | CABIN1_Q9Y6J0_829_LTNNLIQVIDCSMAVQEEAK (UniProt Q9Y6J0) | -0.118
22 | CANX_P27824_360_CESAPGCGVWQR (UniProt P27824) | -0.0628
23 | C5orf51_A6NDU8_120+130_HCNLLGDELLECLSWR (UniProt A6NDU8) | -0.398
24 | CAMSAP1_Q5T5Y3_1487_SNKPIIHNAISHCCLAGK (UniProt Q5T5Y3) | -0.243
25 | C1orf123_Q9NWV4_33+36_CGNCGEISDK (UniProt Q9NWV4) | -0.0103
26 | C16orf62_Q7Z3J2_925_HGCADTR (UniProt Q7Z3J2) | -0.186
27 | BRCA1_P38398_1513_WYMHSCSGSLQNR (UniProt P38398) | -0.077
28 | BRIX1_Q8TDN6_158_MTGNCLK (UniProt Q8TDN6) | -0.118
29 | BUD31_P41223_137+139_IIECTHCGCR (UniProt P41223) | 0.131
30 | BRF1_Q92994_9_GCGGTDIELDAAR (UniProt Q92994) | -0.0432
31 | BTK_Q06187_527_NCLVNDQGVVK (UniProt Q06187) | -0.0292
32 | C3_P01024_1458_VSHSEDDCLAFK (UniProt P01024) | -0.0484
33 | BTBD10_Q9BSF8_86_TESQLTPCIR (UniProt Q9BSF8) | -0.608
34 | C3orf80_F5H4A9_177_SDPSCASEHEMR (UniProt F5H4A9) | -0.0873
35 | CAMLG_P49069_123_GTQLGDKLDSFIKPPECSSDVNLELR (UniProt P49069) | -0.255
36 | BST1_Q10588_238_IEIWVMHEIGGPNVESCGEGSMK (UniProt Q10588) | -0.336
37 | CAMK1_Q14012_267_RFTCEQALQHPWIAGDTALDK (UniProt Q14012) | -0.112
38 | CAMK1_Q14012_355_DCCVEPGTELSPTLPHQL (UniProt Q14012) | 0.0801
39 | CAND1_Q86VP6_92_EYQVETIVDTLCTNMLSDK (UniProt Q86VP6) | 0.0398
